Measurements published in PubChem BioAssay AID2685 (National Center for Advancing Translational Sciences (NCATS), 2010).
The other results are listed elsewhere or left out. Shown are side measurements of this screen, not its main read-out; they come without a call. Compounds called inactive in the main read-out are mostly missing here. The note in brackets gives the kind of curve behind each potency; many fits are weak.

Assay: qHTS Assay for Lipid Storage Modulators in Drosophila S3 Cells;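 as to cell number change: cells counted by Cell Tracker Red CMTPX staining in the red channel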
Conditions: BODIPY lipid droplet fluorescence, 18-24 h; for cell number change: measured here: cell count max response, cells fed with added oleic acid
Method in brief: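 Laser-scanning cytometry quantifies lipid droplet accumulation (500–530 nm total intensity; droplet/cell object ratio) in oleic acid-fed (400 uM added) Drosophila S3 cells treated with a concentration series. 20 uM Triacsin C defined 100% inhibition.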

[1] = measured here: cell number channel AC50, cells fed with added oleic acid
[2] = measured here: lipid fluorescence (Fed channel) AC50, cells fed with added oleic acid

Structure (SMILES)	cell number change	AC50 [1]	AC50 [2]
OCC[C@@H]1C[C@@H](O)[C@H](O)[C@@]2(Cc3ccccc3CCO2)O1	4.19%	–	–
Cn1c(=S)n(/N=C/c2ccc3c(c2)OCO3)c2ccccc21	54.4%	0.00731 µM [rising, full curve, poor fit]	1.3 µM [rising, full curve]
Cc1ccc(C(=O)Nc2nnc(-c3ccncc3)o2)cc1	–	6.51 µM [falling, single point]	16.4 µM [falling, single point]
CCN(CC)S(=O)(=O)c1cc(C(=O)Nc2ccccn2)ccc1C	6.75%	–	–
CCOCCCNC(=O)N[C@@H](Cc1ccccc1)C(=O)OC	-9.11%	–	2.31 µM [falling, full curve, poor fit]
Cc1c(NC(=O)c2cnn3c2NC(c2ccccc2)CC3C(F)(F)F)c(=O)n(-c2ccccc2)n1C (configuration not stated)	-9.61%	–	4.11 µM [falling, single point]
O=C(CSc1ncccn1)Nn1cnnc1	–	–	23.1 µM [falling, partial curve]
Cc1cn([C@@H](CCCCNC(=O)OC(C)(C)C)C(=O)NCCCCCCCCCCC(=O)N2CCN(C(=O)OC(C)(C)C)CC2)nn1	-45.4%	9.2 µM [falling, partial curve]	2.06 µM [falling, partial curve]
CCc1nnc(NC(=O)C2CC(=O)N(Cc3ccccc3)C2)s1 (configuration not stated)	3.5%	0.58 µM [rising, single point]	–
COc1cccc(C2C(C(=O)c3ccco3)=C(O)C(=O)N2CCN(C)C)c1OC (configuration not stated)	56.3%	11.6 µM [rising, partial curve]	–
COc1cc(/C=N/N=C(/N)c2nonc2N)cc(Br)c1OCc1ccccc1C	-65.2%	29.1 µM [falling, single point]	2.06 µM [rising, partial curve]
COc1ccc(-c2c[n+]3c(n2-c2ccccc2)CCCCC3)cc1	-40.1%	16.4 µM [falling, single point]	18.4 µM [falling, single point]
Cn1c(-c2ccsc2)c(-c2cccs2)c2cc(Br)ccc21	20.1%	–	1.16 µM [falling, partial curve]
CCOc1ccc(NC(=O)CN(C)C(=O)C2CCCO2)cc1OCC (configuration not stated)	-58.6%	25.9 µM [falling, single point]	–
CCOc1cc(-c2noc(-c3ccncc3)n2)cc(Br)c1OC	-5.81%	0.184 µM [rising, full curve, poor fit]	13 µM [rising, single point]
